Assay results as given in paper PMC12069340 (Frontiers in Cellular and Infection Microbiology, 2025).

System: A/PuertoRico/8/1934 (H1N1) virus
Experiment: microbe, parasite or virus in culture
Type: cell-based
Details: Influenza A virus, H1N1, U-937, 48 h, read-out: NA Inhibition (%)

Q: How did the inhibition at 20 µM turn out when `CN1CC2c3ccccc3Oc3ccc(Cl)cc3C2C1` (stereo not shown) [Asenapine] was run?
A: Its inhibition at 20 µM is 0.2%.
